Experimental data: PubChem BioAssay AID1259425 (University of Nebraska Medical Center, 2018)

Screen: 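Seek colon cancer weak points whose silencing resembles KSR1 loss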 (primary screen)
System: HCT116 human colon cancer cells
Reagents: siRNA pool against human genes, 50 nM siRNA
Read-out: 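After 50 nM siRNA pool, branched-DNA assay measures six marker transcripts per well, minus blank, normalised to the geometric mean of two housekeeping transcripts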
Reading the numbers: BNIP3L mRNA: higher = more BNIP3L transcript after knockdown
The deposit covers about 14,000 reagents; shown is a random part of them. Further read-outs or replicates are left out here. The record does not give: the time to read-out.

With MMAA (metabolism of cobalamin associated A), how do the results read?
BNIP3L mRNA, set 1: 0.136

How did the screen score ZHX2 (zinc fingers and homeoboxes 2)?
BNIP3L mRNA, set 1: 0.0832

With XCR1 (X-C motif chemokine receptor 1), what does the deposit list?
BNIP3L mRNA, set 1: 0.0793

What is on record for IFT27 (intraflagellar transport 27)?
BNIP3L mRNA, set 1: 0.0764

With FGD6 (FYVE, RhoGEF and PH domain containing 6), how do the results read?
BNIP3L mRNA, set 1: 0.116

With HDAC4 (histone deacetylase 4), what was measured?
BNIP3L mRNA, set 1: 0.121

With CCDC40 (coiled-coil domain 40 molecular ruler complex subunit), what was measured?
BNIP3L mRNA, set 1: 0.0992

What is on record for CCPG1 (cell cycle progression 1)?
BNIP3L mRNA, set 1: 0.103

With NRXN3 (neurexin 3), what does the deposit list?
BNIP3L mRNA, set 1: 0.082

What is on record for CIITA (class II major histocompatibility complex transactivator)?
BNIP3L mRNA, set 1: 0.111

For TRPS1 (transcriptional repressor GATA binding 1), what was measured?
BNIP3L mRNA, set 1: 0.0969

For IGSF3 (immunoglobulin superfamily member 3), what was measured?
BNIP3L mRNA, set 1: 0.0754

For CDC73 (cell division cycle 73), what does the deposit list?
BNIP3L mRNA, set 1: 0.115

How did the screen score OSBP (oxysterol binding protein)?
BNIP3L mRNA, set 1: 0.1

What is on record for U2AF1 (U2 small nuclear RNA auxiliary factor 1)?
BNIP3L mRNA, set 1: 0.115

With C19orf73 (chromosome 19 open reading frame 73), what was measured?
BNIP3L mRNA, set 1: 0.208

What did the screen give for DUX1 (double homeobox 1)?
BNIP3L mRNA, set 1: 0.143

With HBS1L (HBS1 like translational GTPase), how do the results read?
BNIP3L mRNA, set 1: 0.0442

For GRIPAP1 (GRIP1 associated protein 1), what was measured?
BNIP3L mRNA, set 1: 0.139

With TP53BP2 (tumor protein p53 binding protein 2), how do the results read?
BNIP3L mRNA, set 1: 0.0558

What is on record for CEACAM5 (CEA cell adhesion molecule 5)?
BNIP3L mRNA, set 1: 0.05

Which result is listed for TMEM222 (transmembrane protein 222)?
BNIP3L mRNA, set 1: 0.336

For MPG (N-methylpurine DNA glycosylase), what was measured?
BNIP3L mRNA, set 1: 0.12

With FLNB (filamin B), how do the results read?
BNIP3L mRNA, set 1: 0.0553

With TXLNA (taxilin alpha), what does the deposit list?
BNIP3L mRNA, set 1: 0.0572

How did the screen score RAB9A (RAB9A, member RAS oncogene family)?
BNIP3L mRNA, set 1: 0.111

What did the screen give for PHYHIPL (phytanoyl-CoA 2-hydroxylase interacting protein like)?
BNIP3L mRNA, set 1: 0.141

What did the screen give for SEPHS2 (selenophosphate synthetase 2)?
BNIP3L mRNA, set 1: 0.0578

Which result is listed for ARHGAP35 (Rho GTPase activating protein 35)?
BNIP3L mRNA, set 1: 0.0929

With GPR75 (G protein-coupled receptor 75), what was measured?
BNIP3L mRNA, set 1: 0.152

With APIP (APAF1 interacting protein), what does the deposit list?
BNIP3L mRNA, set 1: 0.122

What is on record for ECD (ecdysoneless cell cycle regulator)?
BNIP3L mRNA, set 1: 0.175

What did the screen give for STK10 (serine/threonine kinase 10)?
BNIP3L mRNA, set 1: 0.0862

With NKAP (NFKB activating protein), how do the results read?
BNIP3L mRNA, set 1: 0.109

How did the screen score WFDC1 (WAP four-disulfide core domain 1)?
BNIP3L mRNA, set 1: 0.118

For DIS3 (DIS3 exosome endoribonuclease and 3'-5' exoribonuclease), what was measured?
BNIP3L mRNA, set 1: 0.0782

Records listed so far whose gene name begins with S or s (2):
SEPHS2 (selenophosphate synthetase 2) | BNIP3L mRNA, set 1 = 0.0578
STK10 (serine/threonine kinase 10) | BNIP3L mRNA, set 1 = 0.0862
